We go through 40 compounds from the supplement of paper PMC8426693.

The list shows a part of the results.

For one experiment, the system named is SARS-CoV-2 attenuator hairpin (att HP) RNA. The experiment in a line: NMR binding call after quantification (hit when 2 of 3 NMR criteria are met) (binary (1 = binding, 0 = not binding)); higher = binding. Particulars: RNA concentration 10 µM; fragment concentration 200 µM; 293 K.
`CC(Cc1ccc(Br)cc1)C(N)=O` (stereo not given) had an NMR binding call of 0.

`CCC(CO)NC(=O)Nc1ccc(Cl)cc1` (stereo not given) gave an NMR binding call of 0.

The compound `CCC(C)NC(=O)c1ccccc1N` (stereo not given) displayed an NMR binding call of 0.

With `COc1ccc(C(N)C(=O)O)cc1` (stereo not given), the NMR binding call was 0.

Compound `Cc1ccsc1CNC(C)(C)CO` yielded an NMR binding call of 0.

In the case of `COc1ccc(NC(=O)Nc2cccs2)cn1`, the NMR binding call turned out to be 0.

`COc1ccc(C)cc1NC(=O)Nn1cnnc1` yielded an NMR binding call of 0.

In turn, `CC(C)c1ccc(NC(=O)N2CCOCC2)cc1` had an NMR binding call of 0.

Compound `CCCC(=O)NCc1nc2ccccc2[nH]1` registered an NMR binding call of 0.

Compound `O=C(Nc1nc2ccccc2[nH]1)C1CCCCC1` showed an NMR binding call of 0.

As for `NNC(=O)c1ccc(OCc2ccccc2)cc1`, the NMR binding call stood at 0.

Consider `Cc1ccc(Nc2ncnc3[nH]ncc23)cc1`, for which the NMR binding call was 0.

With `COc1cccc(C(=O)Nc2ccccc2F)c1`, the NMR binding call came to 0.

On to `Cc1cc(C(=O)NCC2CCOC2)on1` (stereo not given), for which the NMR binding call is 0.

With `CC(=O)N1CCC(C#N)CC1`, the NMR binding call amounted to 0.

For `Oc1ccc(CN2CCc3ccccc3C2)cc1`, the NMR binding call was found to be 0.

With `O=C(Nc1ccc2ncccc2c1)c1ccccc1`, the NMR binding call is 0.

`CC(C)(O)CN1CCC(N)C1` (stereo not given): the NMR binding call worked out at 0.

Compound `CC(C)c1ncc(Cl)c(C(N)=O)n1` yielded an NMR binding call of 0.

Take `CC(=O)Nc1ccc(OC(=O)N2CCCC2)cc1`: the NMR binding call worked out at 0.

For `Cc1ccccc1-n1cc(C(=O)O)nn1`, the NMR binding call is 0.

`COCC(=O)NCc1ccc(C)cc1` yielded an NMR binding call of 0.

On to `CC(C)C(=O)NCc1nc2ccccc2[nH]1`, for which the NMR binding call turned out to be 0.

As to `CC(C)NC(=O)CN1CCCNCC1`, the NMR binding call came out at 0.

`CCN(CC)C(=O)c1cc(C)no1` gave an NMR binding call of 0.

`CC(O)C(=O)NCc1ccccn1` (stereo not given) returned an NMR binding call of 0.

As for `CC(=O)Nc1cc(C)n[nH]1`, the NMR binding call was found to be 0.

`CS(=O)(=O)NC1CCCC1` came in with an NMR binding call of 0.

For `CN1CCN(C(=O)C2CCCN2)CC1` (stereo not given), the NMR binding call was 0.

Consider `c1csc(-c2nnc[nH]2)n1`, for which the NMR binding call amounted to 0.

In turn, `Cc1ccccc1CC(N)=O` displayed an NMR binding call of 0.

`CN(c1ccc(C(N)=O)nn1)C1CCC1`: the NMR binding call was determined as 0.

The compound `Cc1cc(C(=O)NC(C)C)on1` came in with an NMR binding call of 0.

For the compound `CC(C)COc1ccc(C(=O)N2CCCC2)cc1`, the NMR binding call was 0.

Take `Cc1ccc(OCC(=O)N2CCOCC2)c(C)c1`: the NMR binding call worked out at 0.

`COCC(=O)NCc1ccccc1` showed an NMR binding call of 0.

In the case of `CN(C(=O)C1CC1(C)C)c1cccnc1` (stereo not given), the NMR binding call was 0.

The compound `CCOc1ccc(C(=O)Nc2cc(C)on2)cc1` showed an NMR binding call of 0.

With `CCn1ccc(CNC)n1`, the NMR binding call was 0.

As for `Cc1nc(CN2CC(F)CC2CN)cs1` (stereo not given), the NMR binding call was found to be 0.

Another experiment concerns SARS-CoV-2 frameshift pseudoknot (PK) RNA. The experiment is described as above. The note with it: RNA concentration 10 µM; fragment concentration 200 µM; 293 K.
For `CC(Cc1ccc(Br)cc1)C(N)=O` (stereo not given), the NMR binding call is 0.

For the compound `CCC(CO)NC(=O)Nc1ccc(Cl)cc1` (stereo not given), the NMR binding call turned out to be 0.

Consider `CCC(C)NC(=O)c1ccccc1N` (stereo not given), for which the NMR binding call turned out to be 0.

Turning to `COc1ccc(C(N)C(=O)O)cc1` (stereo not given), the NMR binding call stood at 0.

`Cc1ccsc1CNC(C)(C)CO`: the NMR binding call came to 0.

Consider `COc1ccc(NC(=O)Nc2cccs2)cn1`, for which the NMR binding call was 0.

As to `COc1ccc(C)cc1NC(=O)Nn1cnnc1`, the NMR binding call stood at 0.

As for `CC(C)c1ccc(NC(=O)N2CCOCC2)cc1`, the NMR binding call amounted to 0.

`CCCC(=O)NCc1nc2ccccc2[nH]1`: the NMR binding call stood at 0.

Regarding `O=C(Nc1nc2ccccc2[nH]1)C1CCCCC1`, the NMR binding call stood at 0.

`NNC(=O)c1ccc(OCc2ccccc2)cc1`: the NMR binding call was determined as 0.

On to `Cc1ccc(Nc2ncnc3[nH]ncc23)cc1`, for which the NMR binding call was found to be 0.

For the compound `COc1cccc(C(=O)Nc2ccccc2F)c1`, the NMR binding call was determined as 0.

Consider `Cc1cc(C(=O)NCC2CCOC2)on1` (stereo not given), for which the NMR binding call was determined as 0.

On to `CC(=O)N1CCC(C#N)CC1`, for which the NMR binding call was 0.

Regarding `Oc1ccc(CN2CCc3ccccc3C2)cc1`, the NMR binding call worked out at 0.

On to `O=C(Nc1ccc2ncccc2c1)c1ccccc1`, for which the NMR binding call is 0.

Turning to `CC(C)(O)CN1CCC(N)C1` (stereo not given), the NMR binding call amounted to 0.

Consider `CC(C)c1ncc(Cl)c(C(N)=O)n1`, for which the NMR binding call is 0.

For `CC(=O)Nc1ccc(OC(=O)N2CCCC2)cc1`, the NMR binding call came to 0.

Take `Cc1ccccc1-n1cc(C(=O)O)nn1`: the NMR binding call came to 0.

As to `COCC(=O)NCc1ccc(C)cc1`, the NMR binding call is 0.

`CC(C)C(=O)NCc1nc2ccccc2[nH]1`: the NMR binding call is 0.

Take `CC(C)NC(=O)CN1CCCNCC1`: the NMR binding call was determined as 0.

Take `CCN(CC)C(=O)c1cc(C)no1`: the NMR binding call was found to be 0.

On to `CC(O)C(=O)NCc1ccccn1` (stereo not given), for which the NMR binding call amounted to 0.

On to `CC(=O)Nc1cc(C)n[nH]1`, for which the NMR binding call was found to be 0.

Regarding `CS(=O)(=O)NC1CCCC1`, the NMR binding call was determined as 0.

Regarding `CN1CCN(C(=O)C2CCCN2)CC1` (stereo not given), the NMR binding call turned out to be 0.

As to `c1csc(-c2nnc[nH]2)n1`, the NMR binding call came to 0.

In the case of `Cc1ccccc1CC(N)=O`, the NMR binding call worked out at 0.

As for `CN(c1ccc(C(N)=O)nn1)C1CCC1`, the NMR binding call is 0.

Take `Cc1cc(C(=O)NC(C)C)on1`: the NMR binding call stood at 0.

Turning to `CC(C)COc1ccc(C(=O)N2CCCC2)cc1`, the NMR binding call was 0.

Consider `Cc1ccc(OCC(=O)N2CCOCC2)c(C)c1`, for which the NMR binding call amounted to 0.

`COCC(=O)NCc1ccccc1`: the NMR binding call is 0.

As for `CN(C(=O)C1CC1(C)C)c1cccnc1` (stereo not given), the NMR binding call was 0.

Consider `CCOc1ccc(C(=O)Nc2cc(C)on2)cc1`, for which the NMR binding call came out at 0.

Take `CCn1ccc(CNC)n1`: the NMR binding call is 0.

As for `Cc1nc(CN2CC(F)CC2CN)cs1` (stereo not given), the NMR binding call was 0.
